In the supplement of paper PMC11348887:
Structures can show the parent of a compound that is named as a salt. Some of the results follow. Most values lie at the level of the controls, where differences are scatter. *1 amine or outer side, *2 acyl side, *3 side chain or, on linkers, in order; H or OH if unused. Where a SMILES comes first, the peptide text is derived from it. Bridges are numbered along the chain shown (N, C = ends). [ ]: non-standard residue; d: D form. The star is where a group is joined. hTyr(3S-OH,4S-OH,3'-OSO3H) = N[C@H](C(=O)O)[C@H](O)[C@@H](O)c1ccc(O)c(OS(=O)(=O)O)c1; Orn(4R-OH,5R-OH) = O=C([C@H](C[C@@H](O)[C@@H](O)N[*:3])N[*:1])[*:2]; Pro(3S-OH,4S-Me) = C[C@H]1CN[C@H](C(=O)O)[C@H]1O; X3 = CCCCCOc1ccc(-c2cc(-c3ccc(C(=O)*)cc3)no2)cc1; Gln(3R-OH) = NC(=O)C[C@@H](O)[C@H](N)C(=O)O; Hyp = O=C(O)[C@@H]1C[C@@H](O)CN1; Cbz = O=C(OCc1ccccc1)*

Columns and labels:
Settings in all cases: 5 µM; treatment: days 7-14 after plating, readout day 21
[1] = system: hPSC-derived cortical neurons (WA09); assay: nucleus area z-score vs screen plate; higher = larger nuclei (more mature)
[2] = system: hPSC-derived cortical neurons (WA09); assay: total neurite length per nucleus (MAP2) z-score; higher = more neurite growth
[3] = system: hPSC-derived cortical neurons (WA09); assay: nucleus roundness z-score vs screen plate; higher = rounder nuclei (more mature)
[4] = system: hPSC-derived cortical neurons (WA09); assay: KCl-induced FOS+/EGR-1+ double-positive nuclei fraction z-score (KCl minus unstimulated); higher = stronger activity-induced IEG response

Row | SMILES | nucleus area z-score [1] | total neurite length per nucleus (z-score) [2] | nucleus roundness z-score [3] | KCl-induced FOS+/EGR-1+ double-positive nuclei fraction z-score [4]
1 | CC(C)(CO)C(O)C(=O)NCCCO (racemic) [DL-Panthenol] | 0.409 | -0.493 | 0.306 | -1.34
2 | Fc1ccc2[nH]ccc2c1-c1nc(N2CCOCC2)c2sc(CN3CCN(CC4CC4)CC3)cc2n1 | -0.2 | -0.052 | -1.42 | 0.0703
3 | CC(C)Oc1ccc(-c2c[nH]cc2CN(C)CCN)cc1 | 0.165 | -0.853 | 0.067 | -0.702
4 | CCCCCCOC(=O)NC(=N)c1ccc(NCc2nc3cc(C(=O)N(CCC(=O)OCC)c4ccccn4)ccc3n2C)cc1 [Dabigatran Etexilate] | 0.822 | -0.289 | -0.847 | -0.921
5 | O=C(O)C(=O)O.[NH-][C@@H]1CCCC[C@H]1[NH-].[Pt+2] [Oxaliplatin] | -0.339 | 1.07 | 1.12 | 1.66
6 | CCN(CC)CCCC(C)Nc1c2ccc(Cl)cc2nc2ccc(OC)cc12 (stereo not given) [Quinacrine 2HCl] | -5.24 | -1.56 | -5.56 | -1.51
7 | Cc1cc(CN2CCN(c3c(Br)cnc4nc(-c5ccc(N6CCN(C)CC6)cc5)[nH]c34)CC2)no1 | -11 | -4.56 | -1.31 | -0.8
8 | c1ccc(Cn2c(-c3ccc(OC[C@H](C4CCNCC4)n4c(-c5ccccc5)nc5ccccc54)cc3)nc3ccccc32)cc1 [Deltarasin] | -14.4 | -3.42 | -1.96 | -0.746
9 | CC(C)(Sc1cc(C(C)(C)C)c(O)c(C(C)(C)C)c1)Sc1cc(C(C)(C)C)c(O)c(C(C)(C)C)c1 [Probucol] | 0.619 | -0.0961 | -0.622 | 0.271
10 | Cc1cccc(CN2CCN(C(c3ccccc3)c3ccc(Cl)cc3)CC2)c1 (stereo not given) [Meclizine 2HCl] | -8 | -3.7 | -6.24 | -2.26
11 | Nc1ccc(S(=O)(=O)NC(=O)c2ccccc2)cc1 [Sulfabenzamide] | 0.557 | 0.71 | -0.15 | 0.153
12 | Cc1ncc(Cl)cc1NCc1ccc(C(=O)N[C@@H](CC2CCCC2)C(=O)NC2CC2)s1 | 0.877 | 0.0179 | 0.0328 | -0.236
13 | CC(=O)NS(=O)(=O)c1ccc(NC(=O)c2ccccc2C(=O)O)cc1 [Phthalylsulfacetamide] | 0.404 | 0.593 | 0.924 | 0.858
14 | NC[C@H]1O[C@H](O[C@H]2[C@H](O[C@@H]3O[C@H](CO)[C@@H](O)[C@H]3O)[C@@H](O)[C@H](N)C[C@@H]2N)[C@H](N)[C@@H](O)[C@@H]1O [Ribostamycin Sulfate] | 0.139 | 0.257 | -0.00253 | 0.771
15 | Cc1c(Cl)cccc1Nc1ccccc1C(=O)O [Tolfenamic Acid] | -1.1 | 0.567 | -0.214 | -0.102
16 | C[C@H](Oc1cc(-c2cnn(C3CCNCC3)c2)cnc1N)c1c(Cl)ccc(F)c1Cl [(S)-crizotinib] | -0.884 | -0.947 | -1.15 | 0.578
17 | Cc1cn(-c2cc(NC(=O)c3ccc(C)c(Nc4nccc(-c5cccnc5)n4)c3)cc(C(F)(F)F)c2)cn1 [Nilotinib (AMN-107)] | 0.42 | 1.15 | -1.79 | 0.0561
18 | O=C([O-])c1ccccc1O.[Na+] [Sodium salicylate] | 0.0156 | -1.59 | -1.75 | 0.793
19 | Cc1ccnc(NS(=O)(=O)c2ccc(N)cc2)n1 [Sulfamerazine] | -0.515 | -0.178 | -0.174 | 1.01
20 | c1ccc(CN(CC2=NCCN2)c2ccccc2)cc1 [Antazoline HCl] | -0.24 | 0.215 | 0.555 | -0.0213
21 | O=C(O)c1ccc(-c2c[nH]c3ncc(-c4ccccc4)cc23)cc1C1CCCC1 | 0.433 | 0.943 | 0.0495 | 1.81
22 | C[C@@H]1CC(=O)NN=C1c1ccc(NN=C(C#N)C#N)cc1 [Levosimendan] | -0.111 | 1.21 | 1.89 | 2.77
23 | CCCCCCCc1ccc(CCc2cccc(O)c2C(=O)O)cc1 | 0.535 | 0.797 | 0.852 | 0.148
24 | CC(C)(Oc1ccc(Cl)cc1)C(=O)O [Clofibric Acid] | 0.371 | -0.023 | 1.23 | 0.359
25 | CN1CCC(OC(c2ccccc2)c2ccccc2)CC1 [Diphenylpyraline HCl] | -0.722 | 0.359 | 0.136 | 1.05
26 | C[C@@]12C[C@@]3(O)O[C@@H](O1)[C@]1(COC(=O)c4ccccc4)[C@H]3C[C@@]12O[C@@H]1O[C@H](CO)[C@@H](O)[C@H](O)[C@H]1O [Paeoniflorin] | 0.0147 | -0.977 | -1.27 | 0.197
27 | O=c1oc2ccccc2c(O)c1Cc1c(O)c2ccccc2oc1=O [Dicoumarol] | 0.481 | 0.23 | 0.0693 | 0.183
28 | CC(CN1c2ccccc2Sc2ccccc21)N(C)C (stereo not given) [Promethazine HCl] | 0.0909 | -1.03 | -0.591 | -0.536

Row | SMILES | nucleus area z-score [1] | total neurite length per nucleus (z-score) [2] | nucleus roundness z-score [3] | KCl-induced FOS+/EGR-1+ double-positive nuclei fraction z-score [4]
29 | COc1ccc(CCC(=O)Nc2nc3ccc(Cl)cc3s2)cc1OC | 0.79 | 0.0532 | 0.35 | 1.48
30 | N[C@@H](CCC(=O)N[C@@H](CS)C(=O)NCC(=O)O)C(=O)O [Glutathione] | 1.91 | 0.483 | 1.15 | 2.2
31 | CC(C)C[C@@H](C=O)NC(=O)[C@H](CC(C)C)NC(=O)[C@H](CC(C)C)NC(=O)OCc1ccccc1 (Cbz-Leu-Leu-Leu-aldehyde) | -15.4 | -5.54 | 0.0165 | -0.373
32 | COC(=O)C1=CO[C@@H](O)[C@@H]2C(CO)=CC[C@H]12 [Genipin] | 0.397 | 1.21 | 0.837 | 1.15
33 | CC(=O)NC[C@H]1CN(c2ccc(N3CCOCC3)c(F)c2)C(=O)O1 [Linezolid] | -0.136 | 0.156 | 0.78 | 0.463
34 | CCCCCOc1ccc(-c2cc(-c3ccc(C(=O)N[C@H]4C[C@@H](O)[C@@H](O)NC(=O)[C@@H]5[C@@H](O)[C@@H](C)CN5C(=O)[C@H]([C@H](O)CC(N)=O)NC(=O)[C@H]([C@H](O)[C@@H](O)c5ccc(O)c(OS(=O)(=O)O)c5)NC(=O)[C@@H]5C[C@@H](O)CN5C(=O)[C@H]([C@@H](C)O)NC4=O)cc3)no2)cc1 [Micafungin Sodium] (X3-[Orn(4R-OH,5R-OH)]T[Hyp][hTyr(3S-OH,4S-OH,3'-OSO3H)][Gln(3R-OH)][Pro(3S-OH,4S-Me)]; lactam 1-C) | -0.315 | 0.0286 | -0.482 | 1.57
35 | NS(=O)(=O)c1cc(C(=O)O)c(NCc2ccco2)cc1Cl [Furosemide] | -0.17 | -0.351 | -0.745 | 1.09
36 | Fc1ccc(Cl)cc1-c1nc(Nc2ccncc2)c2nccnc2n1 | 3.5 | -1.33 | -3.49 | -0.163
37 | CNCCCC12CCC(c3ccccc31)c1ccccc12 [Maprotiline HCl] | -0.264 | -0.158 | -1.04 | -0.00757
38 | Nc1nc(=O)c2nc(CNc3ccc(C(=O)N[C@@H](CCC(=O)O)C(=O)O)cc3)cnc2[nH]1 [Folic acid] | -0.124 | 0.334 | 0.435 | 0.346
39 | C[C@]12CC[C@@H]3c4ccc(O)cc4CC[C@H]3[C@@H]1CC[C@@H]2O [Estradiol] | -0.0818 | -0.022 | 0.657 | -0.665
40 | CC/C(=C(\c1ccccc1)c1ccc(OCCN(C)C)cc1)c1ccccc1 [Tamoxifen Citrate] | -2.7 | -1.85 | -1.47 | -0.0725
41 | CC(=O)OCC(=O)NCCCOc1cccc(CN2CCCCC2)c1 [Roxatidine Acetate HCl] | -0.117 | 3.15 | 0.0458 | 2.04
42 | COc1cc(C2Oc3cc([C@H]4Oc5cc(O)cc(O)c5C(=O)[C@@H]4O)ccc3OC2CO)ccc1O (stereo not given in full) [Silymarin] | 2.27 | -1.52 | -1.08 | -0.67
43 | CCOC(=O)[C@H](CCc1ccccc1)N[C@@H](C)C(=O)N1Cc2ccccc2C[C@H]1C(=O)O [Quinapril HCl] | 0.41 | -0.22 | 0.257 | -0.23
44 | O=C(CCCCCCNC(=O)c1cnc(N(c2ccccc2)c2ccccc2)nc1)NO [Rocilinostat (ACY-1215)] | -3.41 | -0.211 | -1.76 | 0.451
45 | N=c1ccn2c(n1)O[C@H]1[C@H](O)[C@@H](CO)O[C@H]12 [Cyclocytidine HCl] | -0.192 | 1.44 | -0.331 | 0.533
46 | CCCN(CCC)S(=O)(=O)c1ccc(C(=O)O)cc1 [Probenecid] | -0.0528 | 0.339 | -0.317 | 0.815
47 | O=NO [Sodium Nitrite] | 0.621 | -0.5 | -0.297 | 0.0838
48 | O=C(O)c1cccc(-c2noc(-c3ccccc3F)n2)c1 [Ataluren (PTC124)] | 0.384 | 1.08 | 0.326 | 0.46
49 | CC[C@@](C)(Nc1ccnc(-c2c[nH]c3ncccc23)n1)C(=O)NCC(F)(F)F [Decernotinib (VX-509)] | -0.222 | 1.39 | 2.5 | 0.935
50 | O=C(Nc1ccncc1)c1cc([N+](=O)[O-])ccc1Cl | 0.985 | 0.857 | -0.762 | 0.365
51 | c1ccc(CNc2ncnc3[nH]cnc23)cc1 [6-Benzylaminopurine] | 0.908 | -1.74 | -1.88 | 0.446
52 | COc1cc2c(Nc3ccc(NC(=O)c4ccccc4)cc3)ncnc2cc1OCCCN1CCOCC1 | 1.25 | 1.47 | 0.587 | -0.0316
53 | CCOC(=O)[C@H](CCc1ccccc1)N[C@@H](C)C(=O)N1[C@H](C(=O)O)C[C@@H]2CCC[C@@H]21 [Ramipril] | 0.195 | 0.147 | 0.0984 | -1.1
54 | Cc1ccc(F)c(NC(=O)Nc2ccc(-c3cccc4[nH]nc(N)c34)cc2)c1 [Linifanib (ABT-869)] | 1.66 | -0.00444 | 0.233 | -1.25
55 | Cc1ccc(-n2nc(C(C)(C)C)cc2NC(=O)Nc2ccc(OCCN3CCOCC3)c3ccccc23)cc1 [BIRB 796 (Doramapimod)] | 0.122 | -0.788 | -1.33 | -0.858

3 successive compounds from above, quoted:
Row | SMILES | nucleus area z-score [1] | total neurite length per nucleus (z-score) [2] | nucleus roundness z-score [3] | KCl-induced FOS+/EGR-1+ double-positive nuclei fraction z-score [4]
40 | CC/C(=C(\c1ccccc1)c1ccc(OCCN(C)C)cc1)c1ccccc1 [Tamoxifen Citrate] | -2.7 | -1.85 | -1.47 | -0.0725
41 | CC(=O)OCC(=O)NCCCOc1cccc(CN2CCCCC2)c1 [Roxatidine Acetate HCl] | -0.117 | 3.15 | 0.0458 | 2.04
42 | COc1cc(C2Oc3cc([C@H]4Oc5cc(O)cc(O)c5C(=O)[C@@H]4O)ccc3OC2CO)ccc1O (stereo not given in full) [Silymarin] | 2.27 | -1.52 | -1.08 | -0.67
